No constants are given. Whether binding was seen depends on the method and setting. In cells and extracts the contact can be indirect. Some binding calls cover weakened binding; strength is not graded here.
Molecular target: TDP-43 (human (endogenous in iPSC-derived neurons)) (UniProt Q13148)
Experiment: co-IP

Sequences of proteins named here, by UniProt entry; tags and fusion partners are left off.
UniProt Q13148: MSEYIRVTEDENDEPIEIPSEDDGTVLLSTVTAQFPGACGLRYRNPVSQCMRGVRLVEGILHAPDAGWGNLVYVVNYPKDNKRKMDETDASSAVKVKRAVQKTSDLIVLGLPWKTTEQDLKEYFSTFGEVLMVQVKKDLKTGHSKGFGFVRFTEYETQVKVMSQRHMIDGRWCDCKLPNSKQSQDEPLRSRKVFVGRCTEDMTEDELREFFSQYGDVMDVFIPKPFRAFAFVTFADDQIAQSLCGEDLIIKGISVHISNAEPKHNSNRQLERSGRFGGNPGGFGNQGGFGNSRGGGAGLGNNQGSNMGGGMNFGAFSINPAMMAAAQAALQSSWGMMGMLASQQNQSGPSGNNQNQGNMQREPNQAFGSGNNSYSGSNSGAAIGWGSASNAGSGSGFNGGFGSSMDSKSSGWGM

- binding: binds
B1: ZCCHC8 (protein, UniProt Q6NZY4 1-707)
chain: MAAEVYFGDLELFEPFDHPEESIPKPVHTRFKDDDGDEEDENGVGDAELRERLRQCEETIEQLRAENQELKRKLNILTRPSGILVNDTKLDGPILQILFMNNAISKQYHQEIEEFVSNLVKRFEEQQKNDVEKTSFNLLPQPSSIVLEEDHKVEESCAIKNNKEAFSVVGSVLYFTNFCLDKLGQPLLNENPQLSEGWEIPKYHQVFSHIVSLEGQEIQVKAKRPKPHCFNCGSEEHQMKDCPMPRNAARISEKRKEYMDACGEANNQNFQQRYHAEEVEERFGRFKPGVISEELQDALGVTDKSLPPFIYRMRQLGYPPGWLKEAELENSGLALYDGKDGTDGETEVGEIQQNKSVTYDLSKLVNYPGFNISTPRGIPDEWRIFGSIPMQACQQKDVFANYLTSNFQAPGVKSGNKRSSSHSSPGSPKKQKNESNSAGSPADMELDSDMEVPHGSQSSESFQFQPPLPPDTPPLPRGTPPPVFTPPLPKGTPPLTPSDSPQTRTASGAVDEDALTLEELEEQQRRIWAALEQAESVNSDSDVPVDTPLTGNSVASSPCPNELDLPVPEGKTSEKQTLDEPEVPEIFTKKSEAGHASSPDSEVTSLCQKEKAELAPVNTEGALLDNGSVVPNCDISNGGSQKLFPADTSPSTATKIHSPIPDMSKFATGITPFEFENMAESTGMYLRIRSLLKNSPRNQQKNKKASE

Source: article doi:10.1101/2025.09.30.679260
